Test results published in article PMC5349851, “Combinatorial bZIP dimers display complex DNA-binding specificity landscapes”.
A weaker result is weaker than the reference pair of the same experiment. For part of these data: Protein sequences can lack the tags named with them. For part of these data: For at least one entry, the source does not settle the construct or the ends of the probe. For part of these data: At least one verdict was read from the data and is not stated in words by the source.

By UniProt entry, the sequences of proteins in these tests, tags left out. Residues count along the entry.
UniProt P49715, 273-345: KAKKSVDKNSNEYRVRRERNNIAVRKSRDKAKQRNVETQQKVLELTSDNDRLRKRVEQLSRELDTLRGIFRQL

Key:
Test in all cases: EMSA-FRET
[1] = target: CEBPA (human) (UniProt P49715); settings: homodimer, weaker or no binding; EMSA-FRET: 50 nM each labeled protein, 10 nM DNA, 50 mM potassium phosphate pH 7.4, 150 mM KCl, 0.1% BSA, 0.1% Tween-20, 5 ng/ul poly(dI-dC), 0.5 mM TCEP; recombinant protein; label: 5' TYE 665
[2] = target: T1, ATF3 (human) (UniProt P18847); settings: homodimer, EMSA-FRET: 50 nM each labeled protein, 10 nM DNA, 50 mM potassium phosphate pH 7.4, 150 mM KCl, 0.1% BSA, 0.1% Tween-20, 5 ng/ul poly(dI-dC), 0.5 mM TCEP, recombinant protein, label: 5' TYE 665
T1 sequence: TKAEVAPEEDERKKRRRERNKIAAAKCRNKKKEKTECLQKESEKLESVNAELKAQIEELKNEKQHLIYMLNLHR

[3] = target: T2, CEBPG (human) (UniProt P53567); settings: homodimer; EMSA-FRET: 50 nM each labeled protein, 10 nM DNA, 50 mM potassium phosphate pH 7.4, 150 mM KCl, 0.1% BSA, 0.1% Tween-20, 5 ng/ul poly(dI-dC), 0.5 mM TCEP; recombinant protein; label: 5' TYE 665
T2 sequence: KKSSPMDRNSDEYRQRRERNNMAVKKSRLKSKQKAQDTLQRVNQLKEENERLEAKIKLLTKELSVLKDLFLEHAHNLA

[4] = target: T3, BATF3 (human) (UniProt Q9NR55); settings: homodimer, weaker or no binding; EMSA-FRET: 50 nM each labeled protein, 10 nM DNA, 50 mM potassium phosphate pH 7.4, 150 mM KCl, 0.1% BSA, 0.1% Tween-20, 5 ng/ul poly(dI-dC), 0.5 mM TCEP; recombinant protein; label: 5' TYE 665
T3 sequence: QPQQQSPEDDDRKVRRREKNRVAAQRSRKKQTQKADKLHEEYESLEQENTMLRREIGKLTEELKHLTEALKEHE

Row | Sequence | binding result [1] | binding result ([2]; weaker or no binding) | binding result [2] | binding result [3] | binding result [4]
1 | GAGTCCATGAGCAATCCGTAG (double strand) [AP1/CAAT (TRE-CAAT)] | binds more weakly | binds more weakly |  |  | 
2 | GAGTCCATGACGCAATCCGTAG (double strand) [CRE/CAAT] |  |  | binds more weakly | binds more weakly | 
3 | GAGTCCGCCACGCAATCCGTAG (double strand) [CREA/CAAT (CRE-L-CAAT)] | binds more weakly |  |  |  | binds more weakly
